Measured values published in patent US12202905B2, “Methods and compositions relating to adenosine receptors” (Twist Bioscience Corporation, priority 2021, dated 2025).
At least one read-out could not be matched to a standard name with certainty.

How the values were obtained:
[1] = target: T1, adenosine A2A receptor (Homo sapiens, UniProt P29274); assay: A2A cAMP antagonist titration (fixed 100 nM IgG, NECA titration); type: cell-based
[2] = target: T1, adenosine A2A receptor; assay: LANCE allosteric cAMP assay (titrated IgG, fixed NECA); type: cell-based; conditions: fixed NECA concentration

Substance: A2A-1: A2AR variant; VH CDR1-3 SEQ ID NO 6/95/184
- mode of action indicated by IC50 [1]: negative allosteric modulator
- mode of action indicated by IC50 [2]: negative allosteric modulator
